Data source: PubChem BioAssay AID686938 (Drosophila RNAi Screening Center, 2013)

Assay: 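Fly genes required for calcium entry once internal stores are emptied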 (primary screen)
Cell system: Drosophila S2R+ cells
Reagents: long dsRNA against Drosophila genes, about 0.25 µg dsRNA per well, roughly 10,000 cells
Timing: 5 days of knock-down before the calcium assay
Challenge: thapsigargin (SERCA pump blocker) to empty calcium stores; entry signal taken 4 min after adding it
Detection: 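Per-well fluo-4 fluorescence in two replicates, unnormalised, measured in resting cells and 4 min after store depletion by the SERCA blocker thapsigargin; ratio of the two present in few wells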
Direction: calcium entry signal: higher = stronger calcium signal after store depletion; resting calcium signal: higher = higher resting calcium signal
Call rule: 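Called when the plate z-score of the entry-to-rest ratio, mean of duplicates, falls below −3; wells with low overall dye signal (Fmax z below −2) or more than five off-targets excluded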
Calls: active = strongly reduced calcium entry; inactive = no strong reduction
The deposit covers about 23,000 reagents; this is an unselected part of those with a known target gene and a result. Over the whole deposit, 75 (0.33%) got an active call. 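Raw plate signals without normalisation; calls rest on plate z-scores that were not deposited; ratio present for only 364 wells.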 Unmarked entries are inactive. Not given: the dose of the treatment.

| gene | amplicon | calcium entry signal, replicate 1 (fluorescence units) | calcium entry signal, replicate 2 (fluorescence units) | resting calcium signal, replicate 1 (fluorescence units) | resting calcium signal, replicate 2 (fluorescence units) |
| --- | --- | --- | --- | --- | --- |
| betaTub85D | DRSC16910 | 1.74e7 | 2.38e7 | 1.18e7 | 1.47e7 |
| t-cup | DRSC01254 | 4.13e7 | 4.79e7 | 2.06e7 | 2.01e7 |
| CG15473 | DRSC18056 | 3.89e7 | 4.83e7 | 1.78e7 | 2.14e7 |
| MTF-1 | DRSC08983 | 3.71e7 | 3.74e7 | 2.05e7 | 1.78e7 |
| MTF-1 | DRSC11217 | 2.26e7 | 4.40e7 | 1.18e7 | 2.23e7 |
| MTF-1 | DRSC21341 | 2.41e7 | 3.42e7 | 1.18e7 | 1.53e7 |
| CG8813 | DRSC00706 | 3.68e7 | – | 2.34e7 | – |
| mTerf5 | DRSC16209 | 4.40e7 | 4.08e7 | 1.95e7 | 1.81e7 |
| CG4267 | DRSC00102 | 1.83e7 | 2.75e7 | 1.13e7 | 1.24e7 |
| CG4267 | DRSC00647 | 2.89e7 | 3.31e7 | 1.47e7 | 1.64e7 |
| CG2113 | DRSC08554 | 4.25e7 | 4.09e7 | 2.26e7 | 1.98e7 |
| Bub3 | DRSC14168 | 2.32e7 | 2.80e7 | 1.28e7 | 1.59e7 |
| stac | DRSC13693 | 4.54e7 | 3.87e7 | 2.05e7 | 1.84e7 |
| stac | DRSC14392 | 4.52e7 | 3.89e7 | 2.27e7 | 1.73e7 |
| stac | DRSC22197 | 3.74e7 | 8.36e7 | 1.72e7 | 3.01e7 |
| Capa | DRSC15058 | 3.09e7 | 3.62e7 | 1.54e7 | 1.76e7 |
| Cyp4s3 | DRSC20241 | 3.81e7 | 3.09e7 | 1.96e7 | 1.46e7 |
| Cyp4s3 | DRSC22340 | 3.80e7 | 6.34e7 | 1.89e7 | 2.94e7 |
| CG5122 | DRSC02816 | 5.32e7 | 4.20e7 | 2.46e7 | 1.91e7 |
| CG34324 | DRSC19502 | 3.89e7 | 5.35e7 | 1.98e7 | 2.57e7 |
| CG34324 | DRSC23241 | 3.80e7 | 3.65e7 | 1.80e7 | 1.68e7 |
| Sox100B | DRSC15090 | 2.44e7 | 3.57e7 | 1.56e7 | 2.01e7 |
| Sox100B | DRSC16866 | 3.53e7 | 5.40e7 | 1.86e7 | 2.21e7 |
| CG2794 | DRSC00534 | 2.32e7 | 2.02e7 | 1.16e7 | 9.98e6 |
| CG43146 (retired record) | DRSC09254 | 4.67e7 | 4.04e7 | 2.06e7 | 1.95e7 |
| CG9727 | DRSC12585 | 4.57e7 | 5.56e7 | 1.81e7 | 2.22e7 |
| CG14357 | DRSC14820 | 4.02e7 | 4.87e7 | 1.91e7 | 4.80e7 |
| CG14655 | DRSC12241 | 5.42e7 | 2.75e7 | 2.75e7 | 1.42e7 |
| CG15109 | DRSC06536 | 4.02e7 | 4.08e7 | 1.76e7 | 1.87e7 |
| CG5191 | DRSC15733 | 3.87e7 | 3.61e7 | 1.82e7 | 1.71e7 |
| CG5191 | DRSC15734 | 4.12e7 | 5.48e7 | 6.51e7 | 2.48e7 |
| CG5191 | DRSC21559 | 4.09e7 | 3.40e7 | 2.51e7 | 1.61e7 |
| ppk24 | DRSC15093 | 3.29e7 | 5.88e7 | 1.60e7 | 2.40e7 |
| GalT1 | DRSC22238 | 3.18e7 | 4.25e7 | 1.53e7 | 2.12e7 |
| run | DRSC20584 | 4.41e7 | 4.33e7 | 1.90e7 | 1.87e7 |
| run | DRSC21515 | 3.15e7 | 3.29e7 | 1.79e7 | 1.64e7 |
| CG42238 | DRSC03180 | 3.07e7 | – | 1.44e7 | – |
| NKCC | DRSC12140 | 3.30e7 | 4.07e7 | 1.44e7 | 1.75e7 |
| NKCC | DRSC12311 | 4.07e7 | 2.60e7 | 1.88e7 | 1.34e7 |
| Fur1 | DRSC13707 | 3.16e7 | 3.23e7 | 1.52e7 | 1.62e7 |
| Fur1 | DRSC16676 | 2.57e7 | 2.30e7 | 1.23e7 | 1.24e7 |
